From patent publication US20220175888A1, “CARBOXYLATED OSTEOCALCIN FOR TREATMENT OF AMYLOIDOSIS OR DISEASES ASSOCIATED WITH ABNORMAL PROTEIN FOLDING” (NATIONAL INSTITUTE OF IMMUNOLOGY, priority 2018, published 2022)
At least one peptide structure holds a part that was inferred or is arguable (an end, a ring closure or a residue). Positions of bridges follow the written chain, without caps; N, C: chain ends. Non-standard residues stand in square brackets, D forms with d. No end group written: not given here. Gla = N[C@@H](CC(C(=O)O)C(=O)O)C(=O)O

Assays:
Aβ42 aggregates = target: T1, Aβ42 aggregates (Homo sapiens, UniProt P05067, D678N); experiment: TEM and confocal microscopy of amyloid aggregates; type: biochemical; settings: mutant Aβ42 25 μM + Gla-OC
T1 construct: Abeta42 peptide was brought to monomeric state

[1] = target: mutant Abeta42 (Tottori Japanese mutant) (Homo sapiens, UniProt P05067, D678N); experiment: Thioflavin T assay of mutant Abeta42 aggregation; type: biochemical; settings: Gla-OC 3 ng/ml, mutant Abeta42 25 micromolar

YLYQWLGAPVPYPDPL[Gla]PRR[Gla]VC[Gla]LNPDCDELADHIGFQEAYRRFYGPV (disulfide 23-29) [Gla-OC, carboxylated osteocalcin]
TEM morphology of aggregates (Aβ42 aggregates): thinner and lighter fibril
aggregation of mutant Abeta42 (ThT) [1]: inhibits aggregation
